Experimental data taken from paper PMC11382152 (The Journal of Organic Chemistry, 2024).
In brackets after ≈: the same amount, converted by molar mass.

Experiments:
[1] = system: Staphylococcus aureus (MSSA) ATCC 29213; test: MIC assay; format: cell-based; conditions: ATCC29213|MSSA
[2] = system: Staphylococcus aureus (MRSA) ATCC 700698; test: MIC assay; format: cell-based; conditions: ATCC700698|MRSA

CN[C@H](CC(C)C)C(=O)N[C@H]1C(=O)N[C@@H](CC(N)=O)C(=O)N[C@H]2C(=O)N[C@H]3C(=O)N[C@H](C(=O)N[C@H](C(=O)O)c4cc(O)cc(O)c4-c4cc3ccc4O)[C@H](O)c3ccc(c(Cl)c3)Oc3cc2cc(c3O[C@@H]2O[C@H](CO)[C@@H](O)[C@H](O)[C@H]2O[C@H]2C[C@](C)(N)[C@H](O)[C@H](C)O2)Oc2ccc(cc2Cl)[C@H]1O [vancomycin]
MIC [1]: 1 µg/mL (≈ 0.69 µM)
MIC [2]: 4 µg/mL (≈ 2.76 µM)
